{"source": "PubChem BioAssay AID652243 (Drosophila RNAi Screening Center, 2013)", "assay": "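Fly regulators of androgen-dependent reporter output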 (primary screen)", "cells": "Drosophila S2R+ cells", "reagents": "long dsRNA against Drosophila genes", "time to read-out": "72 h (48 h, then 24 h hormone)", "treatment": "synthetic androgen R1881 at 10 nM for 24 h", "measurement": "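Firefly light from an androgen-responsive reporter and Renilla control light per well, raw and unnormalised, for each of two replicates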", "reading the numbers": "firefly reporter light: higher = more light from androgen-responsive reporter; Renilla control light: higher = more constitutive control signal (cell number, transfection)", "hit rule": "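Across duplicate plates, a knock-down whose log firefly/Renilla ratio shifted a set fold down or up from the GFP/LacZ control mean was a hit; the downward cut appears as both 1.5 and 3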", "calls": "active = hit: reporter lowered or raised; inactive = no hit", "note": "The deposit covers about 24,000 reagents; shown is an unselected part of those with a known target gene and a result. In the full data, 246 (1%) were called active. 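Plates not normalised; calls are printed but the firefly/Renilla ratio behind them is not deposited; fold cut for lowering reported inconsistently.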 Raw values are not corrected between plates. The numbers tell different reagents against one gene apart. No sequences are given here. Not given: the amount of reagent."}
{"target": "Art4 (Arginine methyltransferase 4)", "dsRNA no.": 1, "firefly reporter light, replicate 1": 1.17e5, "firefly reporter light, replicate 2": 1.54e5, "Renilla control light, replicate 1": 1.85e6, "Renilla control light, replicate 2": 2.42e6, "call": "inactive"}
{"target": "Sec71 (Secretory 71)", "dsRNA no.": 1, "firefly reporter light, replicate 1": 2.37e5, "firefly reporter light, replicate 2": 1.80e5, "Renilla control light, replicate 1": 1.58e6, "Renilla control light, replicate 2": 1.76e6, "call": "inactive"}
{"target": "RpL22-like (Ribosomal protein L22-like)", "dsRNA no.": 1, "firefly reporter light, replicate 1": 3.03e5, "firefly reporter light, replicate 2": 2.88e5, "Renilla control light, replicate 1": 2.40e6, "Renilla control light, replicate 2": 1.81e6, "call": "inactive"}
{"target": "RpS27 (Ribosomal protein S27)", "dsRNA no.": 1, "firefly reporter light, replicate 1": 2.00e5, "firefly reporter light, replicate 2": 2.12e5, "Renilla control light, replicate 1": 1.37e6, "Renilla control light, replicate 2": 1.32e6, "call": "inactive"}
{"target": "RpS27 (Ribosomal protein S27)", "dsRNA no.": 2, "firefly reporter light, replicate 1": 3.51e5, "firefly reporter light, replicate 2": 4.51e5, "Renilla control light, replicate 1": 7.94e5, "Renilla control light, replicate 2": 9.06e5, "call": "inactive"}
{"target": "rost (rolling stone)", "dsRNA no.": 1, "firefly reporter light, replicate 1": 1.34e6, "firefly reporter light, replicate 2": 1.24e6, "Renilla control light, replicate 1": 3.48e6, "Renilla control light, replicate 2": 2.66e6, "call": "inactive"}
{"target": "rost (rolling stone)", "dsRNA no.": 2, "firefly reporter light, replicate 1": 4.06e5, "firefly reporter light, replicate 2": 5.03e5, "Renilla control light, replicate 1": 1.73e6, "Renilla control light, replicate 2": 1.74e6, "call": "inactive"}
{"target": "rost (rolling stone)", "dsRNA no.": 3, "firefly reporter light, replicate 1": 9.24e5, "firefly reporter light, replicate 2": 1.02e6, "Renilla control light, replicate 1": 1.74e6, "Renilla control light, replicate 2": 1.62e6, "call": "inactive"}
{"target": "Sec22 (Secretory 22)", "dsRNA no.": 1, "firefly reporter light, replicate 1": 4.57e5, "firefly reporter light, replicate 2": 4.94e5, "Renilla control light, replicate 1": 1.29e6, "Renilla control light, replicate 2": 1.26e6, "call": "inactive"}
{"target": "mtgo (miles to go)", "dsRNA no.": 1, "firefly reporter light, replicate 1": 1.06e6, "firefly reporter light, replicate 2": 4.98e5, "Renilla control light, replicate 1": 2.03e6, "Renilla control light, replicate 2": 1.27e6, "call": "inactive"}
{"target": "mtgo (miles to go)", "dsRNA no.": 2, "firefly reporter light, replicate 1": 6.80e5, "firefly reporter light, replicate 2": 6.13e5, "Renilla control light, replicate 1": 1.99e6, "Renilla control light, replicate 2": 1.81e6, "call": "inactive"}
{"target": "mtgo (miles to go)", "dsRNA no.": 3, "firefly reporter light, replicate 1": 5.01e5, "firefly reporter light, replicate 2": 3.93e5, "Renilla control light, replicate 1": 1.84e6, "Renilla control light, replicate 2": 2.08e6, "call": "inactive"}
{"target": "mtgo (miles to go)", "dsRNA no.": 4, "firefly reporter light, replicate 1": 2.21e5, "firefly reporter light, replicate 2": 2.39e5, "Renilla control light, replicate 1": 3.56e5, "Renilla control light, replicate 2": 7.58e5, "call": "inactive"}
{"target": "CG11113", "dsRNA no.": 1, "firefly reporter light, replicate 1": 3.38e5, "firefly reporter light, replicate 2": 2.71e5, "Renilla control light, replicate 1": 1.76e6, "Renilla control light, replicate 2": 1.57e6, "call": "inactive"}

A run of entries of the results above, as a working copy:
{"target": "Art4 (Arginine methyltransferase 4)", "dsRNA no.": 1, "firefly reporter light, replicate 1": 1.17e5, "firefly reporter light, replicate 2": 1.54e5, "Renilla control light, replicate 1": 1.85e6, "Renilla control light, replicate 2": 2.42e6, "call": "inactive"}
{"target": "Sec71 (Secretory 71)", "dsRNA no.": 1, "firefly reporter light, replicate 1": 2.37e5, "firefly reporter light, replicate 2": 1.80e5, "Renilla control light, replicate 1": 1.58e6, "Renilla control light, replicate 2": 1.76e6, "call": "inactive"}
